These are yes or no findings as the source states them, for the method shown. Binding seen in cells or lysates may run through a third protein. Some results given as binding are weak or reduced against the parent protein; the word gives no strength.

Protein sequences, listed by entry. Tags and fused reporters are not part of them. Lines headed by an entry give the natural chain unless they say otherwise; changes in a name come on top.
UniProt P78527: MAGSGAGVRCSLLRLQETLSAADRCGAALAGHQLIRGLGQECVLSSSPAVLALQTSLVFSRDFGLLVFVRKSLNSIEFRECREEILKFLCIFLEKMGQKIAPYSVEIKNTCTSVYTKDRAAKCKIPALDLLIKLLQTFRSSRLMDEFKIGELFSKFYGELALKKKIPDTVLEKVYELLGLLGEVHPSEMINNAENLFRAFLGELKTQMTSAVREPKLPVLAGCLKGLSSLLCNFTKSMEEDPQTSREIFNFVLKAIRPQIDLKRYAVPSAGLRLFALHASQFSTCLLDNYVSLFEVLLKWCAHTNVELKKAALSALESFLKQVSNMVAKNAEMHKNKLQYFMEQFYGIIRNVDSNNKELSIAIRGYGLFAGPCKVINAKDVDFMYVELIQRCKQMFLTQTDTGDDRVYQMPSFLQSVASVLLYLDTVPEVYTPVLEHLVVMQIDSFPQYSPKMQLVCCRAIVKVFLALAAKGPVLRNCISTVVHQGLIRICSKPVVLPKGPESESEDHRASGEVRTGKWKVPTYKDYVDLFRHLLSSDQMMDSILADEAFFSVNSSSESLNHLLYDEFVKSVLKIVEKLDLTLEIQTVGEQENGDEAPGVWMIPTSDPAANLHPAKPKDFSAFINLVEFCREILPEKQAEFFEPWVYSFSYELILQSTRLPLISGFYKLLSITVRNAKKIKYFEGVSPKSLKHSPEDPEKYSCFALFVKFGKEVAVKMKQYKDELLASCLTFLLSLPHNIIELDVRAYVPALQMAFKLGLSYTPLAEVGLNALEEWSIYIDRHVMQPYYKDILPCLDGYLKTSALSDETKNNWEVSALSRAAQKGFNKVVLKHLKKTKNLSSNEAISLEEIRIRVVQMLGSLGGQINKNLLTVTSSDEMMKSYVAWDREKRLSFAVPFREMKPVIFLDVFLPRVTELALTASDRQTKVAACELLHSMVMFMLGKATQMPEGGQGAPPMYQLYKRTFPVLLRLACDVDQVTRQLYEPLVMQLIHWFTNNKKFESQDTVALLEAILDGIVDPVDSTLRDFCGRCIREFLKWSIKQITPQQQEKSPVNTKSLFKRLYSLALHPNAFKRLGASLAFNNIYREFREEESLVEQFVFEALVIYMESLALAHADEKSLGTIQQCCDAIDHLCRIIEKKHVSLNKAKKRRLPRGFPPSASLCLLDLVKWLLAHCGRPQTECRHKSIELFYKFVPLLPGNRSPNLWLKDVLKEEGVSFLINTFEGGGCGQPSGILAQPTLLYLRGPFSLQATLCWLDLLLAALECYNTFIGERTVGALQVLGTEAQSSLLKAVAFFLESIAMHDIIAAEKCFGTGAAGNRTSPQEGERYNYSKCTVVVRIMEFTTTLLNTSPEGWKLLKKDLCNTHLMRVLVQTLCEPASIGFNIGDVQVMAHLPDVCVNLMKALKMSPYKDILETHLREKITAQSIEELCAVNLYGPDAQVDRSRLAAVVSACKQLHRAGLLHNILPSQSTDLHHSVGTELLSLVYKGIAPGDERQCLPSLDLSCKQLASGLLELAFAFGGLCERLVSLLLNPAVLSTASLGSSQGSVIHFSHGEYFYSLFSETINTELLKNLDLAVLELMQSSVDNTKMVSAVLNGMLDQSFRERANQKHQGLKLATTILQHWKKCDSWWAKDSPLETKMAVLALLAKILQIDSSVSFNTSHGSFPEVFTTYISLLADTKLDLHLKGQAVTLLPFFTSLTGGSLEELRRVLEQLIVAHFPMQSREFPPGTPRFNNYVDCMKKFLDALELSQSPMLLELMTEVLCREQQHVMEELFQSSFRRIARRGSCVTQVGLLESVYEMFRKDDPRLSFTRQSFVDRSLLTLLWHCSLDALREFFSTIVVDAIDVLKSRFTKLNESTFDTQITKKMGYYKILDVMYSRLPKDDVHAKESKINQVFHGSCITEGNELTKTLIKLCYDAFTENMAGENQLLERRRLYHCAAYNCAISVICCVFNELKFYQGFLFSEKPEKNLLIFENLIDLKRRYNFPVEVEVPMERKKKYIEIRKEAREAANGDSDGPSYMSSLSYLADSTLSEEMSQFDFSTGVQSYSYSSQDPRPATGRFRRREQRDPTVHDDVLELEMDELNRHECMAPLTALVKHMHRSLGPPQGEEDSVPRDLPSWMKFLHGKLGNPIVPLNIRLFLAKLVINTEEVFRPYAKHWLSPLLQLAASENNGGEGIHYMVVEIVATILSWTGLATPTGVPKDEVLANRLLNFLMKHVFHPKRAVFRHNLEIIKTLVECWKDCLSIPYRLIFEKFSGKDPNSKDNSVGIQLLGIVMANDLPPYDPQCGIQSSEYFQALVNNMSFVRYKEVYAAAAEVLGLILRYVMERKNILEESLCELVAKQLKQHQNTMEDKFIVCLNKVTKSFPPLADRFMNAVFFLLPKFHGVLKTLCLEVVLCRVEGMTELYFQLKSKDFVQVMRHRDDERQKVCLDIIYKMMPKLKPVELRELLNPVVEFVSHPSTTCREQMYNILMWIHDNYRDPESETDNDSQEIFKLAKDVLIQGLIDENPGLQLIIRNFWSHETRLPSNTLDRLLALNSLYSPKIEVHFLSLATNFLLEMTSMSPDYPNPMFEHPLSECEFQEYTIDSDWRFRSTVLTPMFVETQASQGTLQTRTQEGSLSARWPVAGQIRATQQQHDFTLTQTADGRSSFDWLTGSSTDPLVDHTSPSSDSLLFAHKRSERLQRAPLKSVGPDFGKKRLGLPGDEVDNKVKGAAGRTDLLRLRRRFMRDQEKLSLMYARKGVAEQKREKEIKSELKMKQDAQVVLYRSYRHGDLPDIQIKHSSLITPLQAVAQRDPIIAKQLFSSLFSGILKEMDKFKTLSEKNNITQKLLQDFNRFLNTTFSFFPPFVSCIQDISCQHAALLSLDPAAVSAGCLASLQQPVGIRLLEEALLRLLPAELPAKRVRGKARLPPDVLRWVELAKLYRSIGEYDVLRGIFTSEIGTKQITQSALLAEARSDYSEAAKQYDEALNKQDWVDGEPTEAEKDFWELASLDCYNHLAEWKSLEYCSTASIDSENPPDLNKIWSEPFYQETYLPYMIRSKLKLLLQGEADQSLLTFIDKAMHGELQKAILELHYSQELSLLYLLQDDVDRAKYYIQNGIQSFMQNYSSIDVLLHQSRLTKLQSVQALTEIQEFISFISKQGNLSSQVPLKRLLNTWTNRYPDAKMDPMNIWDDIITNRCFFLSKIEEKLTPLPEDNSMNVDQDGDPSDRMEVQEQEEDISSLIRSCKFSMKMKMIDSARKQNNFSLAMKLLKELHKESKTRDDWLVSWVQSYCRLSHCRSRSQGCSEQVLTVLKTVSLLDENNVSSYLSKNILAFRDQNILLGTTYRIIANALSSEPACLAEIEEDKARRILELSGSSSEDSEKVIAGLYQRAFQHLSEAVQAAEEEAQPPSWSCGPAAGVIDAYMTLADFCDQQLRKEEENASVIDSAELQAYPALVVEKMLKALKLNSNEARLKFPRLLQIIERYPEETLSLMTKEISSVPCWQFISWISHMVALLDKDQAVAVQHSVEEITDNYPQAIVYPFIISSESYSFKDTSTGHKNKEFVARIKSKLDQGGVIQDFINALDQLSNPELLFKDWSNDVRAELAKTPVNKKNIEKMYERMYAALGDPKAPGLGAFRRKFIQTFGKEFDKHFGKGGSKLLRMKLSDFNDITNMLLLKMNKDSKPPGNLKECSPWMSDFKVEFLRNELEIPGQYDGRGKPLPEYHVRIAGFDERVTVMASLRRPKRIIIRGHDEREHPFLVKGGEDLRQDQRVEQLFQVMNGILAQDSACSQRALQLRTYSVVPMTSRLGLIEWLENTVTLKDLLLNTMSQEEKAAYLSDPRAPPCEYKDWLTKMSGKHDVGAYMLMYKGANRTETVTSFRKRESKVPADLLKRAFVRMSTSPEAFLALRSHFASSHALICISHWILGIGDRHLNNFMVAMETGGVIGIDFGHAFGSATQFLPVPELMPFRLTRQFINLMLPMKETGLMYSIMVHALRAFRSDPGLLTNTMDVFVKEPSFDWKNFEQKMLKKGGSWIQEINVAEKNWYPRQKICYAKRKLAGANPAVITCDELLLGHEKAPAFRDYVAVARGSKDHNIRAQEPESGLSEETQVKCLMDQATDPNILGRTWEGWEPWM
UniProt P12956: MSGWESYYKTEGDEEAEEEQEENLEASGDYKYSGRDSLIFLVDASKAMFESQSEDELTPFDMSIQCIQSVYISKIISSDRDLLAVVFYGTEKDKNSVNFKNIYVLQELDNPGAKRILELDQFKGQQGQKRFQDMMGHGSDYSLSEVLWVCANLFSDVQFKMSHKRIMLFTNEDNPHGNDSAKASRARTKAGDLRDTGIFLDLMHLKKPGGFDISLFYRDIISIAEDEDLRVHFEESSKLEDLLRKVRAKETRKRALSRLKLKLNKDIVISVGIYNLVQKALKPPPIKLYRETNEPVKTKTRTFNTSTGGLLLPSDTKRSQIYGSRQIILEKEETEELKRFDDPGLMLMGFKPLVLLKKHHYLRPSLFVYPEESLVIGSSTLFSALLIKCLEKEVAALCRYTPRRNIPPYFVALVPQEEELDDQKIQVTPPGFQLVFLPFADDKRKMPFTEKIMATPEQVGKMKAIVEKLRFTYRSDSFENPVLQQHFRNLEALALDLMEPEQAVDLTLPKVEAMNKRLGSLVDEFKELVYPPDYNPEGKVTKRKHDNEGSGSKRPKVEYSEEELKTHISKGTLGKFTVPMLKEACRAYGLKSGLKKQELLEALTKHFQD

This note sets out measurements from paper PMC9675803.

In the test the target is PRDM15 (human (endogenous in HCT116)) (UniProt P57071). Description: co-IP; lysates of irradiated (8 Gy) HCT116 cells; immunoprecipitation with PRDM15 specific antibody (Pierce Co-Immunoprecipitation Kit), immunoblot for DNA-PKcs, Ku70, Ku80; binding said to increase at 0.5 h after IR.

On to DNA-PKcs (from UniProt P78527 1-4128), for which the binding result is “binds”.

As to “Ku70/Ku80 complex (from UniProt P12956 1-609; P13010 1-732)”, the binding result was “binds”.
